# Measurements as given in the supplement of paper PMC3334620.
# In all, about 33,000 sequences were measured (“E-score (-0.5 to 0.5)”: median about -0.0059, highest 2% from about 0.26 on). This is one part of the list.
# Target: T1, Cin5 (UniProt P40917)
# T1 sequence: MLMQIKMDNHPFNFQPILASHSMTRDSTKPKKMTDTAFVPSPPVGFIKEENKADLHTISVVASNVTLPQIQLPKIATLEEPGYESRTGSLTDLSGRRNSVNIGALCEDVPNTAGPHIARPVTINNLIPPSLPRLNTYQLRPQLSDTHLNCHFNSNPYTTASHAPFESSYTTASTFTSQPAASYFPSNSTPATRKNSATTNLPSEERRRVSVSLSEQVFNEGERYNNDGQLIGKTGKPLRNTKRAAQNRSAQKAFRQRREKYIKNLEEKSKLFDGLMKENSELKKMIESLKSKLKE
# Experiment: PBM E-score (8-mer binding enrichment) (E-score (-0.5 to 0.5)); higher = stronger / more preferred TF binding
# Conditions: protein concentration: 100 nM; construct: GST-full length
# In short: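 Each ungapped eight-base word and its reverse complement, pooled, received an E-score from the Universal PBM Analysis Suite. Underlying scans, normalised with masliner, recorded fluorescent anti-GST bound to GST-tagged yeast transcription factors. These were applied at about 100-200 nM to universal all-10-mer Agilent arrays double-stranded by primer extension.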
row,Sequence,PBM E-score
1,CTGGAAAA,0.0379
2,CTAGTTAA,0.196
3,CTGCGGAC,-0.243
4,ACTGCAGA,-0.133
5,AACTCGGC,0.121
6,GGGTCCAC,-0.345
7,ACCACAGC,-0.105
8,CAGGGGTC,-0.113
9,CCTCGTCG,-0.0293
10,TGGAGCCA,-0.184
11,AGATAGGC,0.0182
12,TACTAAGA,0.159
13,AAGACTGG,-0.0902
14,CGACAGAG,-0.0762
15,CGAGTCCG,-0.0724
16,GGAGCAGA,-0.0793
17,AGAAGGTC,0.124
18,GCCGAGGA,0.0418
19,GAGGTGGA,-0.266
20,ACCGAAGG,-0.0714
21,AGAAGTAT,0.208
22,CGCGTAGA,0.163
23,AGCACGGG,-0.0799
24,CATACCTA,0.0379
25,ACGTGCCG,-0.117

row,Sequence,PBM E-score
1,CAATAGAG,-0.0705
2,TCGTGACA,-0.0894
3,CCCCCGGG,-0.313
4,TAGATTGA,0.0852
5,CCATATCG,0.128
6,ACTAAGCC,0.17
7,CCTTATAG,-0.0207
8,ACCCTTCA,-0.0414
9,TCTCCCCA,0.0223
10,GGCCGGTA,-0.0213
11,TAAGGGTA,-0.0583
12,ATGCCGGA,-0.149
13,CAATAACC,0.116
14,GAAACAGA,0.0464
15,TACCCACA,0.0586
16,CTGCCGGC,-0.126
17,GTGGAACA,0.0035
18,GGGGTCAC,-0.128
19,AACTACTT,0.142
20,CAAGCGGG,-0.11
21,AGAAATTA,0.213
22,CAACGAAC,0.103
23,AGAGGAGA,-0.363
24,CACAGGTA,0.0741
25,CTACCTAC,0.104

row,Sequence,PBM E-score
1,CACCTTGG,-0.112
2,ACGTGGGC,-0.156
3,GCAGGCTA,-0.195
4,CTGCCGGA,0.0162
5,ATTTCCGG,0.243
6,ATCTTCAG,0.107
7,GTGTGGCA,-0.0538
8,AAATTGGT,0.159
9,AACCGAAT,0.106
10,ATCTGTCA,0.162
11,GCAAGTAA,0.176
12,CTCGATTC,0.119
13,ATTACGCC,0.0314
14,ATGGCTTC,-0.0948
15,ACTGAGAC,-0.137
16,CTGCGAGC,0.0862
17,AAATATCC,0.0468
18,ACGCCGAC,0.0337
19,TCGGTTAA,0.128
20,CGGGTGGA,0.029
21,ATGCCGAG,-0.0931
22,CCGGCTCA,0.0475
23,ATACCTTC,0.0246
24,TGGTTACA,-0.035
25,ACCAGAAG,-0.0829

row,Sequence,PBM E-score
1,ACAGACTA,-0.0705
2,ACCTTCAG,-0.0671
3,CAGGCCGC,-0.205
4,GTAAATTA,0.192
5,AAGGCGCG,-0.135
6,ATTCCAAT,0.115
7,ATGCAATC,0.113
8,CGTATGAA,0.188
9,ATGGACTA,0.0277
10,AAACCCGC,0.0832
11,CTTCTTTA,0.0259
12,CACACGAA,0.141
13,CCTATGGC,-0.0304
14,AAACGGTC,-0.0402
15,AGAATGGG,-0.00374
16,GGCCGAAA,0.129
17,CTCCTTGC,-0.0389
18,AACGAAGA,0.0871
19,GCGGTAAC,-0.0129
20,AAGATCGG,-0.0731
21,AAAACGTG,0.0002
22,GCCGCGCA,-0.145
23,ACTCAGGA,-0.0204
24,GGCCGCAC,-0.126
25,GATGTAAA,0.13

row,Sequence,PBM E-score
1,TCGTAACA,0.0155
2,AATCCCGT,0.255
3,ATTACGGA,0.322
4,GGAAAAGA,0.0239
5,AGGATCTA,-0.272
6,CCCTTAGC,-0.157
7,CGTTAAAC,0.115
8,CACTAAAA,0.139
9,TATGATCA,0.175
10,GATCCGAA,0.11
11,AGAGGTAA,-0.0621
12,ATGGAACA,-0.0505
13,AGGGAAAC,-0.227
14,ATAACAAG,0.243
15,AAAGGTAA,-0.00617
16,CCTACAGG,-0.33
17,CCAGCCCG,-0.177
18,TCTTTCCA,-0.00712
19,CTCCGGAA,-0.0124
20,ACTATCCG,0.188
21,GACTACGC,-0.238
22,ATATTTGG,0.171
23,CGATGGAC,-0.0148
24,AATTCAAC,0.181
25,GGGCAGAC,-0.263

row,Sequence,PBM E-score
1,CACCGGCC,-0.307
2,CTCACTGA,0.00932
3,AATCGGCA,0.209
4,CAAAAGAG,0.00829
5,GGCAGTGA,-0.185
6,AAAAGTTA,0.128
7,GCGTACGC,-0.247
8,ACTTTCGA,0.108
9,GGCTGTGA,-0.161
10,GAGCAACC,0.0325
11,ATTAGACG,0.157
12,ATTGAATA,0.277
13,CGAACGGC,-0.163
14,ATTATGAG,0.11
15,ATCCACAG,0.107
16,AGTCTTCA,-0.131
17,AGTAGGGG,0.112
18,AAAGTTGT,0.241
19,AACGAGGC,-0.198
20,GATTGCCA,0.0218
21,AACCAAAT,0.0972
22,CTGCGTTA,-0.136
23,GCATGACA,-0.115
24,CTTCGGCC,-0.122
25,ATAGACAT,-0.064

row,Sequence,PBM E-score
1,GGAGACCC,-0.205
2,CGGCTGCC,-0.0174
3,ACGGGCCG,-0.158
4,AGGATGTG,0.114
5,TCCAGTCA,-0.124
6,GATTTAGC,0.0167
7,ATTTACTC,0.151
8,TAAACCAA,-0.0103
9,AGCGTAAT,0.13
10,AGGTCGGA,-0.0427
11,TGCTTAAA,0.102
12,GCCCTTCA,-0.229
13,CATGTATC,0.149
14,CCAACGGG,-0.0861
15,CGGTATCA,0.0856
16,GACGTCCC,-0.0301
17,AGAACATG,0.0594
18,AGGTGGCC,-0.23
19,CACAAGGG,-0.229
20,ACACAGGT,-0.044
21,ATAAGTAG,0.0735
22,AGTGGGAC,-0.132
